Results from patent publication US10309966B2, “Personalized therapy of inflammation-associated cancer using methods of assessing the susceptibility of a subject to the treatment with EGFR inhibitors/antagonists” (Medizinische Universität Wien, priority 2014, dated 2019).
At least one compound was matched to its structure with a doubt left.

Tests used:
[1] = tested on: IL-6 secretion by isolated Kupffer cells; assay: IL-1β-induced IL-6 production/secretion by isolated Kupffer cells (ELISA, qRT-PCR); type: cell-based, mouse; conditions: for IL-1β-induced release of IL-6: EGFR-expressing Kupffer cells, 24 hours after IL-1β, inhibitor pre-incubation, FIG. 10C
Method: (§1) ELISA for IL-6, IL17A, IL22, IL23 (eBioscience), amphiregulin (R&D Systems), CCL2, IL-1β and IL-1α (BD Biosciences-Pharmigen) were performed following the manufacturer's instructions. MTT assay (EZ4U, Biomedica) was performed to quantify the number of viable Kupffer cells in the wells. The cytokine value was normalized to the number of viable Kupffer cells.
Hepatocytes were plated onto collagen pre-coated cell culture dishes and cultured in HepatoZyme-SFM (Gibco) supplemented with 2 mM glutamine and 1% penicillin-streptomycin (P/S). Hepatocytes were either treated with the indicated amounts of DEN for 24 hours or with 10 ng/ml TNFα (eBioscience) in the presence of cycloheximide (100 μg/ml, Sigma) for 12 hours to study the hepatoprotective role of EGFR. […] Since the number of Kupffer cells which can be recovered from one mouse is very low, it was technically impossible to perform Western Blot analysis for all indicated signaling molecules on one single batch of Kupffer cells. Usually Kupffer cells from 2 livers of the same genotype were pooled together to obtain around 20-30 μg of protein lysate.

[2] = tested on: IL-6 release by cultured Kupffer cells; assay: EGF-induced IL-6 release by cultured Kupffer cells (ELISA); type: cell-based, mouse; conditions: EGFR-positive liver macrophages, 24 hours after EGF, inhibitor pre-incubation; FIG. 10D
Method: as §1, with “Protocols for ELISA have been previously described (Natarajan, A. et al., 2007; Lichtenberger, B. M. et al., 2010; Sibilia, M. et al., 2000; Drobits, B. et al., 2012). ELISA” for “ELISA”
Hepatocytes and Kupffer cells were isolated after liver perfusion according to previously published protocols (Smedsrod, B. et al., 1985) and either directly used for further analysis or cultured as follows. Hepatocytes were plated onto collagen pre-coated cell culture dishes and cultured in HepatoZyme-SFM (Gibco) supplemented with 2 mM glutamine and 1% penicillin-streptomycin (P/S). Hepatocytes were either treated with the indicated amounts of DEN for 24 hours or with 10 ng/ml TNFα (eBioscience) in the presence of cycloheximide (100 μg/ml, Sigma) for 12 hours to study the hepatoprotective role of EGFR. Kupffer cells were isolated and plated in RPMI 1640 with 10% FCS, 2 mM glutamine, 1% P/S for at least 24 hours followed by overnight starvation (in 0.5% FCS containing medium for cytokine induction; serum-free medium for signaling experiments). […]

Row | SMILES | IL-1β-induced release of IL-6 [1] | EGF-induced IL-6 production [2] | IL-6 production in Kupffer cells (IL-1β-induced IL-6 secretion) ([1]; preincubation with increasing amounts of inhibitor (BIBW2992 0.005-20 μM, cetuximab 0.01-1 μg/ml), IL-1β 10 ng/ml, FIGS. 9A, 9B)
1 | Oc1c2ccccc2c2c3c(cccc13)N=N2 [SP600125] | inhibited | inhibited | 
2 | CN(C)C/C=C/C(=O)Nc1cc2c(Nc3ccc(F)c(Cl)c3)ncnc2cc1O[C@H]1CCOC1 [BIBW2992, afatinib] | blocked |  | prevented
